The list shows a part of the results. Single values are uncertain, as repeats are few or missing.
Biological target: T1, NSUN6 (UniProt Q8TEA1)
T1 sequence: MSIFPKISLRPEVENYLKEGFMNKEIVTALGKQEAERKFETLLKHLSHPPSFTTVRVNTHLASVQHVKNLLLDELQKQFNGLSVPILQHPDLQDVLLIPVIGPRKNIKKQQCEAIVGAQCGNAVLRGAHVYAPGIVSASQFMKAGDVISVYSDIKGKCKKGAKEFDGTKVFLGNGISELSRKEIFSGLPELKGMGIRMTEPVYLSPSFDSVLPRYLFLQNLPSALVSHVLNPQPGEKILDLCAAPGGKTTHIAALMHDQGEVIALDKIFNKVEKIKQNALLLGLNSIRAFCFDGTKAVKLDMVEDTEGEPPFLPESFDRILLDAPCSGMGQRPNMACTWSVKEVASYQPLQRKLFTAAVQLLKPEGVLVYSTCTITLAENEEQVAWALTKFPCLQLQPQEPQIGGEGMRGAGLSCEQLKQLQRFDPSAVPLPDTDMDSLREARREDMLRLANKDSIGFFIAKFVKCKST
Assay: m5C methylation level at the target C (C/(C+U) bisulfite reads) (fraction); higher = more methylation by NSUN6; extreme values may be limits of the assay
Conditions: HEK293T (wild-type)
Method: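 High-throughput mutagenesis reporter. About 140 bp oligo-pool variants of four natural Type II m5C substrates (substrate #1 chr15:91425541; #2 RAB15 3'UTR chr14:65413377; #3 SULT2A1 5'UTR chr19:48389569; #4 NAAA CDS chr4:76857361) were cloned as 3'UTR elements of psiCHECK-2 luciferase and transfected into wild-type HEK293T cells. Total RNA was taken 48 h later and m5C level was measured by targeted bisulfite sequencing as C/(C+U) reads at the m5C site (one library).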

[1] = parent substrate: substrate #1 (main figure)

Sequence | m5C methylation level at the target C [1] | m5C methylation level at the target C (parent substrate: substrate #2) | m5C methylation level at the target C (parent substrate: substrate #3) | m5C methylation level at the target C (parent substrate: substrate #4)
ACCUGG | 0 | 0 | 0.00219 | 0.00441
ACGGUA | 0.0201 | 0.00215 | 0.00122 | 0
UCCCCA | 0 | 0.00837 | 0.00296 | 0.00197
CCGUCG | 0.00158 | 0 | 0.00186 | 0.0019
UCAUUG | 0 | 0 | 0.00184 | 0
ACACUG | 0.00082 | 0.00101 | 0.00193 | 0
GCAUUC | 0.00129 | 0.00188 | 0 | 0
CCGGCU | 0 | 0.00124 | 0.000352 | 0.00261
GCCAAU | 0.00404 | 0 | 0 | 0.00124
UCCACA | 0.00369 | 0.00171 | 0.000507 | 0.000728
ACGCGU | 0.00179 | 0 | 0.000687 | 0.00223
UCUGCG | 0.00132 | 0.00435 | 0.000481 | 0
UCUUAU | 0.000794 | 0 | 0.000339 | 0.000871
GCGCCA | 0.00105 | 0 | 0.00737 | 0.00313
CCGUCU | 0 | 0 | 0.00772 | 0
CCAUUU | 0.00161 | 0 | 0 | 0
UCAUGU | 0 | 0 | 0.00607 | 0.00776
UCAUCC | 0 | 0 | 0.00437 | 0.0128
UCGUGG | 0.000804 | 0.00809 | 0.00205 | 0
ACGUUA | 0 | 0 | 0.000528 | 0.000575
UCAGAA | 0 | 0.0107 | 0 | 0.0138
CCGUGU | 0.00851 | 0.00426 | 0.000657 | 0
GCCGCU | 0.000747 | 0.00279 | 0.000887 | 0.00157
GCAAAU | 0.000559 | 0 | 0 | 0.000714

Nothing new here: entries from further up.
Sequence | m5C methylation level at the target C [1] | m5C methylation level at the target C (parent substrate: substrate #2) | m5C methylation level at the target C (parent substrate: substrate #3) | m5C methylation level at the target C (parent substrate: substrate #4)
UCUGCG | 0.00132 | 0.00435 | 0.000481 | 0
UCUUAU | 0.000794 | 0 | 0.000339 | 0.000871
GCGCCA | 0.00105 | 0 | 0.00737 | 0.00313

The list goes on.

Sequence | m5C methylation level at the target C [1] | m5C methylation level at the target C (parent substrate: substrate #2) | m5C methylation level at the target C (parent substrate: substrate #3) | m5C methylation level at the target C (parent substrate: substrate #4)
GCCUGC | 0.00234 | 0.00236 | 0.000335 | 0
CCUCCC | 0 | 0 | 0 | 0.00343
UCUAGA | 0.00118 | 0 | 0.000799 | 0.00147
UCUGCU | 0 | 0.00141 | 0.00215 | 0
UCGCUA | 0 | 0.00152 | 0.00212 | 0.00184
CCGCAU | 0 | 0.000623 | 0.00117 | 0.000444
GCACCC | 0.00155 | 0.00283 | 0.00127 | 0.00092
GCCUUG | 0.00167 | 0.00631 | 0.00215 | 0.0047
UCAAUG | 0 | 0.00286 | 0 | 0
ACUUCG | 0 | 0.00573 | 0 | 0.00136
CCCAUG | 0.00255 | 0.00109 | 0.00277 | 0.00279
UCUCUA | 0.227 | 0.016 | 0.194 | 0.158
ACAGCA | 0 | 0 | 0.00456 | 0
ACGUUC | 0.000773 | 0.00268 | 0.00286 | 0.00479
ACUUCA | 0.00185 | 0 | 0.00099 | 0
CCGGGG | 0.0131 | 0.000849 | 0.00155 | 0.000808
CCGUUG | 0 | 0 | 0.00125 | 0.00372
GCUCGU | 0 | 0.00453 | 0.00178 | 0.00215
GCUUGC | 0 | 0.00375 | 0.00217 | 0.00373
ACGGCA | 0.00994 | 0.00302 | 0 | 0.00095
CCGCGA | 0.000929 | 0.00105 | 0.000891 | 0.00834
GCAGUG | 0.000747 | 0.00639 | 0.00332 | 0.00344
GCGUAC | 0.00111 | 0 | 0.00046 | 0.00182
GCCCCG | 0.0043 | 0 | 0.00231 | 0

Sequence | m5C methylation level at the target C [1] | m5C methylation level at the target C (parent substrate: substrate #2) | m5C methylation level at the target C (parent substrate: substrate #3) | m5C methylation level at the target C (parent substrate: substrate #4)
CCGCUA | 0.000672 | 0.00173 | 0.0021 | 0.00117
ACGAAG | 0 | 0.000972 | 0 | 0.000986
GCCGCA | 0.00165 | 0.0015 | 0.0115 | 0.0033
GCGGCC | 0 | 0.000633 | 0.00091 | 0.00201
UCACAC | 0 | 0 | 0.00157 | 0.000833
UCCCAC | 0.00178 | 0 | 0 | 0
UCUAGC | 0.000672 | 0 | 0 | 0.00232
GCGUAG | 0.00238 | 0.00152 | 0.00343 | 0.00457
CCCCGC | 0.000511 | 0.000925 | 0 | 0.00318
ACCGCC | 0.0012 | 0.00724 | 0.00144 | 0.000682
GCUCUC | 0.00295 | 0.0106 | 0.00382 | 0.0016
CCAACC | 0.00111 | 0 | 0.00811 | 0
GCACUU | 0.00183 | 0 | 0 | 0.000663
GCGAGG | 0 | 0.0006 | 0.0022 | 0.00227
ACUCAC | 0 | 0.00121 | 0 | 0
UCAGUU | 0.000546 | 0.000726 | 0 | 0
GCAAUU | 0.000488 | 0 | 0.00365 | 0
UCUUCG | 0.0019 | 0 | 0.000417 | 0.00161
UCGGCC | 0.00115 | 0.000672 | 0.00171 | 0.000341
GCAGUC | 0.00148 | 0.00714 | 0.00137 | 0
CCUAGA | 0 | 0.00118 | 0.001 | 0.00106
GCGCCC | 0.00129 | 0.00431 | 0.00122 | 0.00145
ACACUU | 0 | 0.00344 | 0.000538 | 0.0021
GCUCAG | 0.00206 | 0.000971 | 0.000471 | 0.00575

From the supplement of paper PMC8288183
